Patent US5698523A (Merrell Pharmaceuticals Inc., priority 1996, dated 1997)

Test: general procedure: peptide synthesis; IBCF/NMM (mixed anhydride)
Details: late stage modification step

(E)-N-(1,1-Dimethylethoxy)carbonyl!-L-alanyl-L-alanyl-N-2-(acetyloxy)-3, 3,3-trifluoro-1-(1-methylethyl)-1-propenyl!-L-prolinamide (SEQ. ID NO. 2)
crude purity (method not given): 91%
step yield: 50% yield
